Data reported in paper doi:10.1101/2025.08.29.668156.

The chains behind the UniProt entries cited, without tags or fusion partners. Residues count along the entry.
UniProt P07737: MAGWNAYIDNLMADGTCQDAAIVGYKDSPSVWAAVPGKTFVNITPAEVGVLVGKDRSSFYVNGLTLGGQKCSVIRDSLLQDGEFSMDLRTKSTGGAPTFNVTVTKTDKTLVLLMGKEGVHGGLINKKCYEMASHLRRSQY
UniProt P50552: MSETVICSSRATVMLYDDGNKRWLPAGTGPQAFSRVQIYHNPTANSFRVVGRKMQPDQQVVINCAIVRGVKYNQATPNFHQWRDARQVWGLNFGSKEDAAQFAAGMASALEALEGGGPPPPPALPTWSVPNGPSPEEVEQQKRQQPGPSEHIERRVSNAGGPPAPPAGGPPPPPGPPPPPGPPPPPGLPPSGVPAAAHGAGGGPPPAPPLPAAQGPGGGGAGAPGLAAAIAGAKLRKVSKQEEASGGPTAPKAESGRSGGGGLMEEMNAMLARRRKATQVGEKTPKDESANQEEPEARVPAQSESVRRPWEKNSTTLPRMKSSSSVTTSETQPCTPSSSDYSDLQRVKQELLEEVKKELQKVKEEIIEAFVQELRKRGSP
UniProt P20339: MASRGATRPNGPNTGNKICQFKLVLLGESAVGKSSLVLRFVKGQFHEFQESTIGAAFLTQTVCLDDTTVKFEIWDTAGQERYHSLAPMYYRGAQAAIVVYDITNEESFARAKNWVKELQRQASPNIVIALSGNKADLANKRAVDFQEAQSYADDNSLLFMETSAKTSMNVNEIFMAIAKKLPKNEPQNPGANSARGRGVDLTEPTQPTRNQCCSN
UniProt P02545: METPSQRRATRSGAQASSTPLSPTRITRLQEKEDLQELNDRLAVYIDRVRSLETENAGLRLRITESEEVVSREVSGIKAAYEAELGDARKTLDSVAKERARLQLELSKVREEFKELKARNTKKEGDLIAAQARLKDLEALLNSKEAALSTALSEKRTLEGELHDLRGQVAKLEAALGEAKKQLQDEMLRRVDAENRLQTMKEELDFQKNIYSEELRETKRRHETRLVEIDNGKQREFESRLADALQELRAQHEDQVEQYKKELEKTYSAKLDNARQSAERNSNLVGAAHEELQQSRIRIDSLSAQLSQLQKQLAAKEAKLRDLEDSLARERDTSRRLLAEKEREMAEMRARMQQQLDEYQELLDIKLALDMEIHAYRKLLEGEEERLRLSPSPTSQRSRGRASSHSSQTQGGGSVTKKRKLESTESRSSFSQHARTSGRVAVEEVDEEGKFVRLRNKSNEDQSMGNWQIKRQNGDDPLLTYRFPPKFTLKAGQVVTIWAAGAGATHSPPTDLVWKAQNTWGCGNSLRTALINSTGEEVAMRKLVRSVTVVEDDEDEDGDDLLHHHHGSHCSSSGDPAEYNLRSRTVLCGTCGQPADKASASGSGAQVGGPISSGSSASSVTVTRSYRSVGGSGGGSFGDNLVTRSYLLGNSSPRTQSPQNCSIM
UniProt P28331, residues 24-727: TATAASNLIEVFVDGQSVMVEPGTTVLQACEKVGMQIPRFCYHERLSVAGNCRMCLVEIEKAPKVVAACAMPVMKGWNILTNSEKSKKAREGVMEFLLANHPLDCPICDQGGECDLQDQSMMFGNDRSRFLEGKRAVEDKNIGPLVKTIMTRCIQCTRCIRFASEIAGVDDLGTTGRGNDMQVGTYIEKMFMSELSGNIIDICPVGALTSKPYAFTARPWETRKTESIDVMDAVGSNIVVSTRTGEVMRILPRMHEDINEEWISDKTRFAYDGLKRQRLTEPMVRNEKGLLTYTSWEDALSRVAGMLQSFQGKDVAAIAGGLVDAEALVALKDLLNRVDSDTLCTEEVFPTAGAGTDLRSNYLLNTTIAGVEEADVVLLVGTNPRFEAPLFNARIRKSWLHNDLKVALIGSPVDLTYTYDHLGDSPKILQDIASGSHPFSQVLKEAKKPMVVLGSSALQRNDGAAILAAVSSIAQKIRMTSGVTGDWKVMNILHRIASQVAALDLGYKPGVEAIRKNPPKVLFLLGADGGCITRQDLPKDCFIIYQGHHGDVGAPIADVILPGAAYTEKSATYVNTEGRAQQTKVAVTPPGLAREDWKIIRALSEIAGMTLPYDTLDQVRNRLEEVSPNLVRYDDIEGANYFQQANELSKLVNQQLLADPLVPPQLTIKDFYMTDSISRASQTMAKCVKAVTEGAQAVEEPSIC
UniProt A0JNW5: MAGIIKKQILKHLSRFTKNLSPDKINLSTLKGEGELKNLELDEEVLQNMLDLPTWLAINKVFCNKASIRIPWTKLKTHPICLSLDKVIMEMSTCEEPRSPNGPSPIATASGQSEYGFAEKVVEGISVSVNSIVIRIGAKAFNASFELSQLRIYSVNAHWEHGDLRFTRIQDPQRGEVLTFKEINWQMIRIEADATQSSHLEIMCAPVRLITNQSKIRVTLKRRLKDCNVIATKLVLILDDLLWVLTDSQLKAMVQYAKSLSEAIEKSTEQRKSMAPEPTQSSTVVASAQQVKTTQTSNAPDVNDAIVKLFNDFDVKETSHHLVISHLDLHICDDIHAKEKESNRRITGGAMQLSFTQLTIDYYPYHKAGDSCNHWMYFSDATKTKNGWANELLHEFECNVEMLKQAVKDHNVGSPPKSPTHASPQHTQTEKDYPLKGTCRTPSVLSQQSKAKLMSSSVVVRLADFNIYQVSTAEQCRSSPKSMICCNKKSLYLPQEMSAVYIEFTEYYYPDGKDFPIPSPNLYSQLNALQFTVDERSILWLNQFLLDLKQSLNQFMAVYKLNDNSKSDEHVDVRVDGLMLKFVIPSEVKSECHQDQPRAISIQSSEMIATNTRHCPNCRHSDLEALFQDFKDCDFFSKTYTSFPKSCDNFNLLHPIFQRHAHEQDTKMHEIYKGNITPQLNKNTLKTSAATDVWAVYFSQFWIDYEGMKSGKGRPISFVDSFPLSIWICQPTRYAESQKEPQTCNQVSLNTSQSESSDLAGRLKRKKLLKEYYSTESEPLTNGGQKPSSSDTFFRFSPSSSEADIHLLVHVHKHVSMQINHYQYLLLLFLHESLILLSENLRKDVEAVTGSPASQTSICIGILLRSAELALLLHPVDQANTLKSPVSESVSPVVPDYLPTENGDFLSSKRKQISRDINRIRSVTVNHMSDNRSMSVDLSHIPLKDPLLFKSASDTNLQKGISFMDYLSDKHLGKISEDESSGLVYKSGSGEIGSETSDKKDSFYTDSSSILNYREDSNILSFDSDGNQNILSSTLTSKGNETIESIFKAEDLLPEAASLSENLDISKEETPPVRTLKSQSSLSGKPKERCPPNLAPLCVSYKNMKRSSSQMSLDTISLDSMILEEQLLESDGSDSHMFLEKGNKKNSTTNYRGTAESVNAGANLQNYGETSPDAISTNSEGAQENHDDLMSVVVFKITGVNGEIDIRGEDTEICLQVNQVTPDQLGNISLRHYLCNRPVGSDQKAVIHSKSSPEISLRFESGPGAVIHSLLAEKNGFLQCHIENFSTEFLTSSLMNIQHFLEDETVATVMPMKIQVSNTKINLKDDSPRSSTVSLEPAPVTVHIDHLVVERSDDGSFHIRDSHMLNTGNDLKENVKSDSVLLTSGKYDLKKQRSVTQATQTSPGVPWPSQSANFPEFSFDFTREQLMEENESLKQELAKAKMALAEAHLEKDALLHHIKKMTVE
UniProt Q01968: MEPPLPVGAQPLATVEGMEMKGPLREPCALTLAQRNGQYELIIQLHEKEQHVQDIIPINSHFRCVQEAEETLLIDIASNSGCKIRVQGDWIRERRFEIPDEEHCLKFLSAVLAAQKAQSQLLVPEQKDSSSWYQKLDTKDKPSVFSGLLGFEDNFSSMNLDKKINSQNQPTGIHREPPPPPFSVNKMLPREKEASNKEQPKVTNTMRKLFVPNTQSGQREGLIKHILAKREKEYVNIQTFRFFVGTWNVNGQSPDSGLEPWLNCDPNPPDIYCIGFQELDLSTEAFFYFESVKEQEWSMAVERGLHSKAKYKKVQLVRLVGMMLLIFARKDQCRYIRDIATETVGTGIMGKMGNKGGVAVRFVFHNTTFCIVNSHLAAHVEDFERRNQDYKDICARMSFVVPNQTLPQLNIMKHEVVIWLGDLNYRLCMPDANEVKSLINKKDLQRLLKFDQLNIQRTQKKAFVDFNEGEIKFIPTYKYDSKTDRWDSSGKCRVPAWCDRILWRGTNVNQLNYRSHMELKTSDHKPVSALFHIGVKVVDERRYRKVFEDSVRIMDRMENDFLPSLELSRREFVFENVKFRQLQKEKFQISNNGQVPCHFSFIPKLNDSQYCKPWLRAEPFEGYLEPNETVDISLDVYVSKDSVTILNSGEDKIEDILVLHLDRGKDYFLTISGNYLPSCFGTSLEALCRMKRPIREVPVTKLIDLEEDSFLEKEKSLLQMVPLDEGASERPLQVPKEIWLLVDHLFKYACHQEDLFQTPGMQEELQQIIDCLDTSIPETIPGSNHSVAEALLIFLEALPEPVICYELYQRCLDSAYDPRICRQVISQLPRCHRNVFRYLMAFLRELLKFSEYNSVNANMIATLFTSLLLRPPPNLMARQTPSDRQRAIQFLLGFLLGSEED
UniProt Q00610: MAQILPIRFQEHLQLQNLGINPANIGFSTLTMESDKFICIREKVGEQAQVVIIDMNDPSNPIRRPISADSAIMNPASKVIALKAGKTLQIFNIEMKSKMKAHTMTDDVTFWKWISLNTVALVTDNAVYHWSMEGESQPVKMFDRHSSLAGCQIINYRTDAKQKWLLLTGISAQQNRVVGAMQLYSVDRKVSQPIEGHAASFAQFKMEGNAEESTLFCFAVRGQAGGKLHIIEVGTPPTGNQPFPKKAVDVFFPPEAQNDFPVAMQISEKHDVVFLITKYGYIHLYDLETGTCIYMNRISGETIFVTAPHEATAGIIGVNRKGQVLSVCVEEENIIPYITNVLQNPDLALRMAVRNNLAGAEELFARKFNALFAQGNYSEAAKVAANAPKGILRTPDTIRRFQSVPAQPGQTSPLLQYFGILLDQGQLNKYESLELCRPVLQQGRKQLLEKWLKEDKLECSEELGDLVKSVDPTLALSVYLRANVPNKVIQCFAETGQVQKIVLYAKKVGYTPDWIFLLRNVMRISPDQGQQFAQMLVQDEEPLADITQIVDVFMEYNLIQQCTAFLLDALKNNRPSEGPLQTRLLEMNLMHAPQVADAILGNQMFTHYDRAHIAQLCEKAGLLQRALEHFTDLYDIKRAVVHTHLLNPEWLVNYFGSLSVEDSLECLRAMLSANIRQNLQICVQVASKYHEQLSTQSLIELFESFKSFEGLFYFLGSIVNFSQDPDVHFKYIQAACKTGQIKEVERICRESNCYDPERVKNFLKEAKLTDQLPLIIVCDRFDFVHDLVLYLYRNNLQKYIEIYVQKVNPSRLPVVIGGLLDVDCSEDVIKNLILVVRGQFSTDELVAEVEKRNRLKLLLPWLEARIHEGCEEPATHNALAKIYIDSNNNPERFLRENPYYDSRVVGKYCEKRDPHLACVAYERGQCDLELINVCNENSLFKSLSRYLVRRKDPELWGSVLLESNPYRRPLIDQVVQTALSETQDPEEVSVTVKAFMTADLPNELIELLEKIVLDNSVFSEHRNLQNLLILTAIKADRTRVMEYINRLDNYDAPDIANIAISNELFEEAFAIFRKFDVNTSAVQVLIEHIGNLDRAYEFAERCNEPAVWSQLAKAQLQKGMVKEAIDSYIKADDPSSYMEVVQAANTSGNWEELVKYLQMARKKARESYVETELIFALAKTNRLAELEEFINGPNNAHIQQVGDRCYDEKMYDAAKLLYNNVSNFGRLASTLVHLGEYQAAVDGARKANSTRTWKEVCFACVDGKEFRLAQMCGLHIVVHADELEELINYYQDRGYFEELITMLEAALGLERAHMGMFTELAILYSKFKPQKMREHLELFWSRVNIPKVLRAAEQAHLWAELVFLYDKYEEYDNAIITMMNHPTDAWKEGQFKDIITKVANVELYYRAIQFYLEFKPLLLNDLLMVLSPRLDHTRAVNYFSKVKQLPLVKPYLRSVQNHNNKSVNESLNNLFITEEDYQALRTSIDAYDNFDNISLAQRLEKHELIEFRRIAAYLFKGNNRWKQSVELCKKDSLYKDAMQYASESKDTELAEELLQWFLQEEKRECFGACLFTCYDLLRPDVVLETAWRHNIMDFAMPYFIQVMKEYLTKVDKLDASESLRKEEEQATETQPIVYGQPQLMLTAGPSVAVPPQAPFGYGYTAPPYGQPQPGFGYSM

How the values were obtained:
Experiment in all cases: proximity labelling
miniTurbo-PFN1 [1] = biological target: miniTurbo-PFN1 (UniProt P07737)
miniTurbo-VASP [2] = biological target: miniTurbo-VASP (UniProt P50552)
miniTurbo-RAB5A = miniTurbo-RAB5A (UniProt P20339)
ultraID-RAB5A = ultraID-RAB5A (UniProt P20339)
[3] = biological target: LMNA N-terminally fused to AirID (UniProt P02545)
[4] = biological target: LMNA N-terminally fused to BASU (UniProt P02545)
[5] = biological target: LMNA N-terminally fused to BioID2 (UniProt P02545)
[6] = biological target: LMNA N-terminally fused to BirA* (UniProt P02545)
[7] = biological target: LMNA N-terminally fused to TurboID (UniProt P02545)
[8] = biological target: LMNA N-terminally fused to lbmicroID2 (UniProt P02545)
[9] = biological target: LMNA N-terminally fused to microID (UniProt P02545)
[10] = biological target: LMNA N-terminally fused to microID2 (UniProt P02545)
[11] = biological target: LMNA N-terminally fused to miniTurbo (UniProt P02545)
[12] = biological target: LMNA N-terminally fused to ultraID (UniProt P02545)
miniTurbo-PFN1 [13] = biological target: miniTurbo-PFN1 (UniProt P07737); remark: listed apart in the source
miniTurbo-VASP [14] = biological target: miniTurbo-VASP (UniProt P50552); remark: listed apart in the source

Measured: binding

NDUFS1 (from UniProt P28331 24-727)
no binding: miniTurbo-PFN1 [1] | miniTurbo-VASP [2]

BLTP3B (from UniProt A0JNW5 1-1464)
binds: miniTurbo-RAB5A | ultraID-RAB5A

OCRL (from UniProt Q01968 1-901)
binds: miniTurbo-RAB5A | ultraID-RAB5A

CLTC (from UniProt Q00610 1-1675)
binds: miniTurbo-RAB5A | ultraID-RAB5A

B1: FAM169A (protein, UniProt Q9Y6X4 1-670)
chain: MAFPVDMLENCSHEELENSAEDYMSDLRCGDPENPECFSLLNITIPISLSNVGFVPLYGGDQTQKILALFAPEDSLTAVALYLADQWWAIDDIVKTSVPSREGLKQVSTLGERVVLYVLNRIIYRKQEMERNEIPFLCHSSTDYAKILWKKGEAIGFYSVKPTGSICASFLTQSYQLPVLDTMFLRKKYRGKDFGLHMLEDFVDSFTEDALGLRYPLSSLMYTACKQYFEKYPGDHELLWEVEGVGHWYQRIPVTRALQREALKILALSQNEPKRPMSGEYGPASVPEYEARTEDNQSSEMQLTIDSLKDAFASTSEGHDKTSVSTHTRSGNLKRPKIGKRFQDSEFSSSQGEDEKTSQTSLTASINKLESTARPSESSEEFLEEEPEQRGIEFEDESSDRDARPALETQPQQEKQDGEKESELEPMNGEIMDDSLKTSLITEEEDSTSEVLDEELKLQPFNSSEDSTNLVPLVVESSKPPEVDAPDKTPRIPDSEMLMDEGTSDEKGHMEEKLSLLPRKKAHLGSSDNVATMSNEERSDGGFPNSVIAEFSEEPVSENLSPNTTSSLEDQGEEGVSEPQETSTALPQSSLIEVELEDVPFSQNAGQKNQSEEQSEASSEQLDQFTQSAEKAVDSSSEEIEVEVPVVDRRNLRRKAKGHKGPAKKKAKLT
not listed: miniTurbo-PFN1 [1] | miniTurbo-VASP [2] | miniTurbo-RAB5A | ultraID-RAB5A | miniTurbo-PFN1 [13] | miniTurbo-VASP [14]
binds: all other assays above

B2: LMNB2 (protein, UniProt Q03252 1-620)
chain: MSPPSPGRRREQRRPRAAATMATPLPGRAGGPATPLSPTRLSRLQEKEELRELNDRLAHYIDRVRALELENDRLLLKISEKEEVTTREVSGIKALYESELADARRVLDETARERARLQIEIGKLRAELDEVNKSAKKREGELTVAQGRVKDLESLFHRSEVELAAALSDKRGLESDVAELRAQLAKAEDGHAVAKKQLEKETLMRVDLENRCQSLQEELDFRKSVFEEEVRETRRRHERRLVEVDSSRQQEYDFKMAQALEELRSQHDEQVRLYKLELEQTYQAKLDSAKLSSDQNDKAASAAREELKEARMRLESLSYQLSGLQKQASAAEDRIRELEEAMAGERDKFRKMLDAKEQEMTEMRDVMQQQLAEYQELLDVKLALDMEINAYRKLLEGEEERLKLSPSPSSRVTVSRATSSSSGSLSATGRLGRSKRKRLEVEEPLGSGPSVLGTGTGGSGGFHLAQQASASGSVSIEEIDLEGKFVQLKNNSDKDQSLGNWRIKRQVLEGEEIAYKFTPKYILRAGQMVTVWAAGAGVAHSPPSTLVWKGQSSWGTGESFRTVLVNADGEEVAMRTVKKSSVMRENENGEEEEEEAEFGEEDLFHQQGDPRTTSRGCYVM
not listed: miniTurbo-PFN1 [1] | miniTurbo-VASP [2] | miniTurbo-RAB5A | ultraID-RAB5A | miniTurbo-PFN1 [13] | miniTurbo-VASP [14]
binds: all other assays above

B3: TMEM201 (protein, UniProt Q5SNT2 1-666)
chain: MEGVSALLARCPTAGLAGGLGVTACAAAGVLLYRIARRMKPTHTMVNCWFCNQDTLVPYGNRNCWDCPHCEQYNGFQENGDYNKPIPAQYLEHLNHVVSSAPSLRDPSQPQQWVSSQVLLCKRCNHHQTTKIKQLAAFAPREEGRYDEEVEVYRHHLEQMYKLCRPCQAAVEYYIKHQNRQLRALLLSHQFKRREADQTHAQNFSSAVKSPVQVILLRALAFLACAFLLTTALYGASGHFAPGTTVPLALPPGGNGSATPDNGTTPGAEGWRQLLGLLPEHMAEKLCEAWAFGQSHQTGVVALGLLTCLLAMLLAGRIRLRRIDAFCTCLWALLLGLHLAEQHLQAASPSWLDTLKFSTTSLCCLVGFTAAVATRKATGPRRFRPRRFFPGDSAGLFPTSPSLAIPHPSVGGSPASLFIPSPPSFLPLANQQLFRSPRRTSPSSLPGRLSRALSLGTIPSLTRADSGYLFSGSRPPSQVSRSGEFPVSDYFSLLSGSCPSSPLPSPAPSVAGSVASSSGSLRHRRPLISPARLNLKGQKLLLFPSPPGEAPTTPSSSDEHSPHNGSLFTMEPPHVPRKPPLQDVKHALDLRSKLERGSACSNRSIKKEDDSSQSSTCVVDTTTRGCSEEAATWRGRFGPSLVRGLLAVSLAANALFTSVFLYQSLR
not listed: miniTurbo-PFN1 [1] | miniTurbo-VASP [2] | miniTurbo-RAB5A | ultraID-RAB5A | miniTurbo-PFN1 [13] | miniTurbo-VASP [14]
binds: all other assays above

B4: GRSF1 (protein, UniProt Q12849 118-480)
chain: SQESKTTYLEDLPPPPEYELAPSKLEEEVDDVFLIRAQGLPWSCTMEDVLNFFSDCRIRNGENGIHFLLNRDGKRRGDALIEMESEQDVQKALEKHRMYMGQRYVEVYEINNEDVDALMKSLQVKSSPVVNDGVVRLRGLPYSCNEKDIVDFFAGLNIVDITFVMDYRGRRKTGEAYVQFEEPEMANQALLKHREEIGNRYIEIFPSRRNEVRTHVGSYKGKKIASFPTAKYITEPEMVFEEHEVNEDIQPMTAFESEKEIELPKEVPEKLPEAADFGTTSSLHFVHMRGLPFQANAQDIINFFAPLKPVRITMEYSSSGKATGEADVHFETHEDAVAAMLKDRSHVHHRYIELFLNSCPKGK
no binding: miniTurbo-PFN1 [13] | miniTurbo-VASP [14]

B5: IARS2 (protein, UniProt Q9NSE4 49-1012)
chain: SNHQPNSNSGRYRDTVLLPQTSFPMKLLGRQQPDTELEIQQKCGFSELYSWQRERKVKTEFCLHDGPPYANGDPHVGHALNKILKDIANRFHMMNGSKIHFVPGWDCHGLPIEIKVLSELGREAQNLSAMEIRKKARSFAKAAIEKQKSAFIRWGIMADWNNCYYTFDGKYEAKQLRTFYQMYDKGLVYRSYKPVFWSPSSRTALAEAELEYNPEHVSRSIYVKFPLLKPSPKLASLIDGSSPVSILVWTTQPWTIPANEAVCYMPESKYAVVKCSKSGDLYVLAADKVASVASTLETTFETISTLSGVDLENGTCSHPLIPDKASPLLPANHVTMAKGTGLVHTAPAHGMEDYGVASQHNLPMDCLVDEDGVFTDVAGPELQNKAVLEEGTDVVIKMLQTAKNLLKEEKLVHSYPYDWRTKKPVVIRASKQWFINITDIKTAAKELLKKVKFIPGSALNGMVEMMDRRPYWCISRQRVWGVPIPVFHHKTKDEYLINSQTTEHIVKLVEQHGSDIWWTLPPEQLLPKEVLSEVGGPDALEYVPGQDILDIWFDSGTSWSYVLPGPDQRADLYLEGKDQLGGWFQSSLLTSVAARKRAPYKTVIVHGFTLGEKGEKMSKSLGNVIHPDVVVNGGQDQSKEPPYGADVLRWWVADSNVFTEVAIGPSVLNAARDDISKLRNTLRFLLGNVADFNPETDSIPVNDMYVIDQYMLHLLQDLANKITELYKQYDFGKVVRLLRTFYTRELSNFYFSIIKDRLYCEKENDPKRRSCQTALVEILDVIVRSFAPILPHLAEEVFQHIPYIKEPKSVFRTGWISTSSIWKKPGLEEAVESACAMRDSFLGSIPGKNAAEYKVITVIEPGLLFEIIEMLQSEETSSTSQLNELMMASESTLLAQEPREMTADVIELKGKFLINLEGGDIREESSYKVIVMPTTKEKCPRCWKYTAESSDTLCPRCAEVVSGK
no binding: miniTurbo-PFN1 [13] | miniTurbo-VASP [14]

Read-outs that look alike come from different tables or passages of the source. No constants are given. Whether binding was seen depends on the method and setting. In cells and extracts the contact can be indirect. These calls come from enrichment with a bait or labelling near it, and not all partners need be listed. For part of these data: No binding means not detected with the bait.
